Publication doi:10.1101/327320
Substitutions are numbered along the chain they refer to. Construct, isoform or probe ends are uncertain for at least one entry. A weaker result is weaker than the reference pair of the same experiment. Where a protein sequence is shown, tags need not be part of it.

How the values were obtained:
[1] = target: T1, Hrq1 (Saccharomyces cerevisiae) (UniProt Q05549); assay: EMSA; conditions: 7.5 mM Mg2+
T1 sequence (looked up, limits assumed): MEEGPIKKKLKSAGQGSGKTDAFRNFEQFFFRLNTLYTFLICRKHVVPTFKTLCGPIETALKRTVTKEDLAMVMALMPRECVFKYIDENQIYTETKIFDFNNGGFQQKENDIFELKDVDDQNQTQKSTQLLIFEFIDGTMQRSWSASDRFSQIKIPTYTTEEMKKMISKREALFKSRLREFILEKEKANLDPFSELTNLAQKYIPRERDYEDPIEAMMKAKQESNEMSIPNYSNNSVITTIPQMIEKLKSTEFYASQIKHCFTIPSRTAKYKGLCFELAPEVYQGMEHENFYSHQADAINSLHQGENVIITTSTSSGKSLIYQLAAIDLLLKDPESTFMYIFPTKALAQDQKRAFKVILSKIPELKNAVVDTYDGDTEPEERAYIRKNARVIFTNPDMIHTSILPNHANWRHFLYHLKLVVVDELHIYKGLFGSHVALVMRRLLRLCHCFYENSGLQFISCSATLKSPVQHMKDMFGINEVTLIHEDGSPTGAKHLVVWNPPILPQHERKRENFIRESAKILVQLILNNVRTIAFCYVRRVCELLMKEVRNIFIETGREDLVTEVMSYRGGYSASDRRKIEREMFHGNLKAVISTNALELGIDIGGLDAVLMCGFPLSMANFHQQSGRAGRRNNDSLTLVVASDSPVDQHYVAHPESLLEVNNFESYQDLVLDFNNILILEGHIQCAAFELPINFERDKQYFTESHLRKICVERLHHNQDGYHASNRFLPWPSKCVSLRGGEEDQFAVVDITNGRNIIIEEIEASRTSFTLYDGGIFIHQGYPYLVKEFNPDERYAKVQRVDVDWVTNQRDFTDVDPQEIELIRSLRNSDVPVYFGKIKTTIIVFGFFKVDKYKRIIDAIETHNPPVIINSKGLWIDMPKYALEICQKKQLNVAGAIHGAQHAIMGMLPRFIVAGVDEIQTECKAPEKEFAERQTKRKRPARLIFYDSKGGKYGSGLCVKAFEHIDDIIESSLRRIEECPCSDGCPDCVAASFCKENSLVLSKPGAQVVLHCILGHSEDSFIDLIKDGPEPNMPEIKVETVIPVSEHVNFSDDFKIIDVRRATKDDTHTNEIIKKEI

[2] = target: T2, Hrq1-K318A (Saccharomyces cerevisiae) (UniProt Q05549); assay: EMSA; conditions: 7.5 mM Mg2+
T2 sequence (looked up, limits assumed): T1 sequence (looked up, limits assumed) with K318A

Measured: binding result

TGTGGTGTGTGTGGG [Tel15]
binds more weakly: [1]; 4 mM ATP (no significant effect) | [1]; no ATP | [2]; 4 mM ATP, very weak but detectable | [2]; no ATP, only basal binding
